In publication PMC3469426:
The exact form of at least one protein or probe is not confirmed. At least one verdict was read from the data and is not stated in words by the source. Tags and fusion partners may be left off the protein sequences shown.

Target: T1, GST-SUVR5 zinc finger domain (Arabidopsis thaliana) (UniProt O64827)
T1 sequence (looked up): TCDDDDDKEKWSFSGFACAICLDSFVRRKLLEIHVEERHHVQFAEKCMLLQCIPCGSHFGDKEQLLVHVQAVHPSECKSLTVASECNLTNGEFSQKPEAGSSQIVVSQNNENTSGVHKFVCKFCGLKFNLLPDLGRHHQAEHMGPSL
Assay: EMSA
Details: 100, 250 and 500 ng protein; EMSA: 12% glycerol, 20 mM Tris-HCl pH 7.5, 50 mM KCl, 1 mM MgCl2, 1 mM DTT; temperature not stated; recombinant protein; residues 720-866; protein details: GST (pDEST15)

“GTAGAATACTAGTTGATAAC (double strand) [specific probe JP8489/JP8495]”: binds.
